Data as given in PubChem BioAssay AID1224828 (NIAID, 2016).

Screen: 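Regulators linking TLR4 signalling to p65 nuclear translocation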 (primary screen)
Cells: mouse RAW264.7 G9 macrophage reporter cells (GFP-p65, Tnf promoter-mCherry)
Reagents: siRNA pool against mouse genes, 100 nM
Timing: 2 days siRNA transfection, then 40 min LPS before fixation
Conditions: LPS (Salmonella minnesota R595) at 10 ng/ml
Read-out: 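Imaged p65 nuclear translocation ratio, normalised to the plate median, converted to robust z-scores and averaged across two replicates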
Reading the numbers: p65 translocation robust z-score: higher = more nuclear NF-kappaB p65 after LPS than the plate median; nuclear/cytoplasmic p65 ratio: higher = more nuclear NF-kappaB p65
Active means: 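Active if robust z is above 3.3 (negative regulators) or below -1.56, the Tlr4 control median (positive regulators); activity score 50 or more; control wells not called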
Meaning of the calls: active = hit (p65 shift raised or lowered); inactive = no clear change
Here is an unselected part of about 17,000 reagents. Over the whole deposit, 762 (4.5%) are marked active. 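Active calls include both raised and lowered p65 entry, mostly lowered; wells with fewer than 50 cells lack a z-score.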 Raw values are not corrected between plates. No sequences are given here.

How did the screen score Kbtbd2 (kelch repeat and BTB (POZ) domain containing 2)?
p65 translocation robust z-score: -0.25; nuclear/cytoplasmic p65 ratio, rep 1: 1.49; nuclear/cytoplasmic p65 ratio, rep 2: 1.42; low cell count flag: enough cells to score; Outcome: inactive

Which result is listed for Def6 (differentially expressed in FDCP 6)?
p65 translocation robust z-score: -0.33; nuclear/cytoplasmic p65 ratio, rep 1: 1.42; nuclear/cytoplasmic p65 ratio, rep 2: 1.61; low cell count flag: enough cells to score; Outcome: inactive

What is on record for Edil3 (EGF-like repeats and discoidin I-like domains 3)?
p65 translocation robust z-score: 0.35; nuclear/cytoplasmic p65 ratio, rep 1: 1.59; nuclear/cytoplasmic p65 ratio, rep 2: 1.4; low cell count flag: enough cells to score; Outcome: inactive

For Gba1 (glucosylceramidase beta 1), what was measured?
p65 translocation robust z-score: 1.3; nuclear/cytoplasmic p65 ratio, rep 1: 1.58; nuclear/cytoplasmic p65 ratio, rep 2: 1.56; low cell count flag: enough cells to score; Outcome: inactive

For Tuba3a (tubulin, alpha 3A), how do the results read?
p65 translocation robust z-score: -0.09; nuclear/cytoplasmic p65 ratio, rep 1: 1.58; nuclear/cytoplasmic p65 ratio, rep 2: 1.41; low cell count flag: enough cells to score; Outcome: inactive

What is on record for Ctf1 (cardiotrophin 1)?
nuclear/cytoplasmic p65 ratio, rep 1: 1.12; nuclear/cytoplasmic p65 ratio, rep 2: 1.12; low cell count flag: fewer than 50 cells per well; well left out of scoring; Outcome: inactive

For Vmn1r42 (vomeronasal 1 receptor 42), what was measured?
nuclear/cytoplasmic p65 ratio, rep 1: 1.36; nuclear/cytoplasmic p65 ratio, rep 2: 1.28; low cell count flag: fewer than 50 cells per well; well left out of scoring; Outcome: inactive

For Nsun3 (NOL1/NOP2/Sun domain family member 3), how do the results read?
p65 translocation robust z-score: 0.27; nuclear/cytoplasmic p65 ratio, rep 1: 1.53; nuclear/cytoplasmic p65 ratio, rep 2: 1.66; low cell count flag: enough cells to score; Outcome: inactive

For Hcls1 (hematopoietic cell specific Lyn substrate 1), what was measured?
p65 translocation robust z-score: 1.17; nuclear/cytoplasmic p65 ratio, rep 1: 1.76; nuclear/cytoplasmic p65 ratio, rep 2: 1.77; low cell count flag: enough cells to score; Outcome: inactive

With Mob4 (MOB family member 4, phocein), what was measured?
p65 translocation robust z-score: 2.07; nuclear/cytoplasmic p65 ratio, rep 1: 1.65; nuclear/cytoplasmic p65 ratio, rep 2: 1.43; low cell count flag: enough cells to score; Outcome: inactive

With Dmrt1 (doublesex and mab-3 related transcription factor 1), how do the results read?
p65 translocation robust z-score: 0.56; nuclear/cytoplasmic p65 ratio, rep 1: 1.62; nuclear/cytoplasmic p65 ratio, rep 2: 1.4; low cell count flag: enough cells to score; Outcome: inactive

Which result is listed for Atmin (ATM interactor)?
p65 translocation robust z-score: -0.75; nuclear/cytoplasmic p65 ratio, rep 1: 1.37; nuclear/cytoplasmic p65 ratio, rep 2: 1.37; low cell count flag: enough cells to score; Outcome: inactive

For Nsun4 (NOL1/NOP2/Sun domain family, member 4), what does the deposit list?
p65 translocation robust z-score: 0.46; nuclear/cytoplasmic p65 ratio, rep 1: 1.45; nuclear/cytoplasmic p65 ratio, rep 2: 1.54; low cell count flag: enough cells to score; Outcome: inactive

What did the screen give for Or2y14 (olfactory receptor family 2 subfamily Y member 14)?
p65 translocation robust z-score: -0.72; nuclear/cytoplasmic p65 ratio, rep 1: 1.5; nuclear/cytoplasmic p65 ratio, rep 2: 1.2; low cell count flag: enough cells to score; Outcome: inactive

A portion of the results above:
Nsun4 (NOL1/NOP2/Sun domain family, member 4): p65 translocation robust z-score = 0.46; nuclear/cytoplasmic p65 ratio, rep 1 = 1.45; nuclear/cytoplasmic p65 ratio, rep 2 = 1.54; low cell count flag = enough cells to score; Outcome = inactive
Or2y14 (olfactory receptor family 2 subfamily Y member 14): p65 translocation robust z-score = -0.72; nuclear/cytoplasmic p65 ratio, rep 1 = 1.5; nuclear/cytoplasmic p65 ratio, rep 2 = 1.2; low cell count flag = enough cells to score; Outcome = inactive
